Assay results taken from PubChem BioAssay AID2685 (National Center for Advancing Translational Sciences (NCATS), 2010).
Values joined by “and” are separate entries in the source; they are usually repeats but may differ in a detail not shown here. Equal values may be shown once. In all, about 320,000 compounds went through this assay and about 2,100 (0.66%) were called active. The shares of active, inactive and inconclusive entries below differ from those in the screen. Calls follow the shape of the dose curve; as a rule, active = well fitted inhibition curve with a large enough effect in the signal ratio, with a control signal flat (not every such curve was filed as active); inconclusive = small, poorly fitted or top-dose-only effect, or effect the other way, or a change in a side signal; inactive = flat fitted curve, though single readings scatter; the % refers to the signal ratio. Where the call is inconclusive, the potency comes from a doubtful curve fit.

assay: qHTS Assay for Lipid Storage Modulators in Drosophila S3 Cells; settings: BODIPY lipid droplet fluorescence, 18-24 h, cells fed with added oleic acid; lipid storage change, negative = inhibition: at 46.1 µM (top of the series) unless noted
Outline: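 Drosophila S3 cells got compounds at several concentrations plus oleic acid (400 uM solution). Laser-scanning cytometry with 488 nm excitation read lipid droplets at 500-530 nm and cells at 575-640 nm. Percent activity was relative to 20 uM Triacsin C.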
% is scaled to controls: 0 for no effect and ±100 for the full control effect; potency is read from the fitted curve at half-maximal effect.

SMILES | Potency | lipid storage change, negative = inhibition
COc1cc(OC)c(NC(=O)c2sc3ncn(CC(=O)N4CCN(c5ccccn5)CC4)c(=O)c3c2C)cc1Cl | inconclusive: 29.1 µM [activator, single point] | –
CCCC1=Nc2cc(C(=O)NCCN3CCCC3)ccc2Sc2ccccc21 | – | inconclusive: -22.4%
O=C(/C=C/c1cccc([N+](=O)[O-])c1)NCCSc1ccccc1 | – | inconclusive: -37%
CCCC(=O)OC(C(=O)Nc1cc(C(F)(F)F)ccc1Cl)c1ccccc1 (configuration not stated) | inconclusive: 5.8 µM [activator, single point] | –
Cc1cc(=O)oc2c(C)c(OC(C)C(=O)N3CC[C@@]4(O)CCCC[C@H]4C3)ccc12 (some centres not stated) | active: 0.731 µM | –
CCC(C)N1CCN(S(=O)(=O)c2ccc3ccccc3c2)CC1 (configuration not stated) | – | inconclusive: 16.6%
CCN1CCN(C(CNS(=O)(=O)c2cccs2)c2cccnc2)CC1 (configuration not stated) | – | inconclusive: 2.02%
O=S(=O)(NC1CC1)c1cccc(S(=O)(=O)N2CCCC2)c1 | – | inconclusive: 9.08%
CC(C)(C)c1ccc(OC(=O)Nc2ccc(O)c(C(=O)O)c2)cc1 | inconclusive: 29.1 µM [activator, single point] | –
CCn1c(SCC(=O)Nc2ccc(C)cc2)nnc1-c1ccccn1 | inconclusive: 16.4 µM [falling, partial curve, poor fit] | –
O=C(CCC(=O)NCCCc1ccccc1)NCCCc1ccccc1 | inconclusive: 18.4 µM [falling, single point] | –
O=C(/C=C/c1ccc(O)c([N+](=O)[O-])c1)c1ccc2ccccc2c1 | – | inconclusive: -6.37%
COc1ccc(C)cc1NC(=O)C(=O)N/N=C(\C)CC(=O)Nc1cccnc1 | – | inconclusive: -55.7%
CCCNC(=O)Cn1c(=O)oc2cc(S(=O)(=O)N3CC(C)CC(C)C3)ccc21 (configuration not stated) | – | inconclusive: 49.3%
Cc1ccc(NC(=O)c2ccc(=O)[nH]n2)cc1S(=O)(=O)Nc1ccccc1Cl | inconclusive: 29.1 µM [activator, single point] | –
O=C(NC1CCCCCCC1)c1ccc(S(=O)(=O)N2CCCC2)cc1 | – | inconclusive: 36.1%
Cc1[nH]nc2c1C(c1cccnc1)N(c1ccc(Br)cc1)C2=O (configuration not stated) | – | inconclusive: -18.2%
CC(C)(CN1CCN(Cc2ccccc2)CC1)NS(=O)(=O)c1ccccc1 | – | inconclusive: -18.9%
COc1c(OC(C)=O)ccc(/C=C/c2ccc3cccc(OCc4ccccc4)c3n2)c1[N+](=O)[O-] | – | inconclusive: -17.8%
CCN1C(=O)/C(=C2/C=Cc3ccccc3N2C)OC1=S | – | inconclusive: -166%
CCS(=O)(=O)c1ccc(C(=O)NC2CC2)c(Cl)c1Cl | – | inconclusive: 2.76%
Cc1[nH][nH]c(=O)c1C(c1ccc2c(c1)OCO2)c1c(C)[nH][nH]c1=O | – | inconclusive: 16.7%
O=C(CSc1nnc2ccc(-c3ccccn3)nn12)Nc1ccc(F)cc1F | – | inconclusive
CC(=O)NCCC(=O)N1CCc2c([nH]c3ccccc23)C1c1cccc(Cl)c1 (configuration not stated) | – | inconclusive: -11.9%
COC(=O)c1cn(NC(=O)c2ccc([N+](=O)[O-])c(C)c2)c(=O)c2ccccc12 | – | inconclusive: 21.9%
COc1ccc(N(C)S(=O)(=O)c2ccc(Cl)c(C(=O)NNC(=O)c3ccccc3O)c2)cc1 | – | inconclusive: 25.5%

Structural class, those above containing an aryl thioether with sulfur outside any ring.
SMILES | Potency | lipid storage change, negative = inhibition
O=C(/C=C/c1cccc([N+](=O)[O-])c1)NCCSc1ccccc1 | – | inconclusive: -37%
CCn1c(SCC(=O)Nc2ccc(C)cc2)nnc1-c1ccccn1 | inconclusive: 16.4 µM [falling, partial curve, poor fit] | –
O=C(CSc1nnc2ccc(-c3ccccn3)nn12)Nc1ccc(F)cc1F | – | inconclusive

Next part.

SMILES | Potency | lipid storage change, negative = inhibition
Cc1ccc(-c2noc(CNS(=O)(=O)c3ccccc3)n2)cc1 | – | inconclusive: 15.7%
CCN1CCN(CC(O)COCc2ccccc2)CC1 (configuration not stated) | – | inconclusive: -22.5%
Cc1c(C(=O)O)oc2ccc(S(=O)(=O)N3CC(C)CC(C)C3)cc12 (configuration not stated) | – | inactive
O=C1CC(c2cccc(O)c2)Oc2ccccc21 (configuration not stated) | inconclusive: 29.1 µM [activator, single point] | –
Cc1ccc(N(CC(=O)Nc2ccccc2C(=O)NCc2ccco2)S(=O)(=O)c2ccccc2)cc1C | inconclusive: 18.4 µM [activator, single point] | –
CCC(=O)Nc1nnc(S(=O)(=O)N(CC(C)C)c2ccccc2)s1 | – | inconclusive: -2.09%
c1ccn(-c2ccc(N3CCOCC3)cc2)c1 | inconclusive: 20.6 µM [activator, single point] | –
CC1=C(C)NC(=S)SC1 | inconclusive: 0.164 µM [falling, full curve, poor fit] | –
COc1ccc(CCNC(=O)c2ccc(OCc3c(C)noc3C)cc2)cc1OC | inconclusive: 29.1 µM [falling, single point] | –
O=c1nc2ccc(Cl)cn2c2ccc(S(=O)(=O)N3CCOCC3)cc12 | inconclusive: 0.92 µM [falling, full curve, poor fit] | –
COC(=O)COc1ccc(-c2nccc(-c3ccc(Br)cc3)n2)cc1 | – | inconclusive: 7.28%
COc1ccc(C(=O)c2no[n+]([O-])c2C(=O)c2ccc(OC)cc2)cc1 | inconclusive: 29.1 µM [falling, single point] | –
COc1ccccc1CNC(=O)CCC(=O)Nc1nnc(C(C)C)s1 | – | inconclusive: -27%
Cc1cc2oc(=O)cc(CN3CCCCC3)c2cc1O | – | inconclusive: -69%
O=C(CCc1nc(-c2ccccc2F)no1)NCCN1CCN(Cc2ccccc2)CC1 | – | inconclusive: 36.6%
CCOc1ccc(NC(=O)CSc2cn[nH]n2)cc1 | – | inconclusive
COc1ccc(C2CC(=O)C=C(NCCC(C)C)C2)cc1 (configuration not stated) | – | inconclusive: -30.3%
Cc1csc(N/N=C/c2c(F)cccc2Cl)n1 | – | inconclusive: 55.6%
O=C(c1ccc(Br)s1)N1CCN(Cc2ccc3c(c2)OCO3)CC1 | inconclusive: 20.6 µM [activator, partial curve] | –
COc1ccccc1CN(C)C(=O)c1cccc(S(=O)(=O)N2CCCc3ccccc32)c1 | – | inconclusive: 1.09%
COc1cc(CC(=O)Nc2nc(-c3ccccc3)c(C(C)=O)s2)cc(OC)c1OC | – | inconclusive: -16.7%
Cc1ccccc1NC(=O)N1CCCC1C(=O)NCc1ccccc1 (configuration not stated) | – | inconclusive: 28.5%
CC(C)c1nc(CNC(=O)CC2C(=O)NCCN2Cc2cccc(F)c2F)cs1 (configuration not stated) | – | inconclusive: -13.8%
Cc1ccc(C(=O)N/C(=C\c2ccco2)C(=O)NCCc2c[nH]c3ccccc23)cc1 | – | inconclusive: -7.21%
COc1cc(/C=C/C(=O)OCC(=O)NC2CCS(=O)(=O)C2)ccc1OC(F)F (configuration not stated) | – | inconclusive: -2.18%
Cc1cc(NC(C)C)n2c(nc3ccccc32)c1C#N | active: 16.4 µM | –

SMILES | Potency | lipid storage change, negative = inhibition
COc1ccc(S(=O)(=O)N2CCOC2CNC(=O)C(=O)NCCc2ccc(OC)c(OC)c2)cc1 (configuration not stated) | inconclusive: 29.1 µM [falling, single point] | –
COc1ccccc1C/C(N)=N/OC(=O)c1ccc(C)c([N+](=O)[O-])c1 | – | inconclusive: -10.3%
Cc1ccc2cc(C#N)c(SCC(=O)NNC(=O)Cc3ccccc3)nc2c1 | inconclusive: 29.1 µM [falling, single point] | –
COC(=O)c1[nH]c2cccc(OC)c2c1NC(=O)CN1CCN(c2cccc(OC)c2)C(C)C1 (configuration not stated) | – | inconclusive: 47.1%
COC(=O)c1ccc(C)c(NC(=O)c2ccc(CN3CCc4ccccc4C3)cc2)c1 | inconclusive: 29.1 µM [falling, single point] | –
COc1ccccc1N1CCN(CC(O)COc2cccc3ccccc23)CC1 (configuration not stated) | inconclusive: 4.11 µM [activator, partial curve] | inconclusive: -9.48% and inconclusive: 25%
CC1CCCN(C(=O)CNC(=O)Cn2ccc3ccccc3c2=O)C1 (configuration not stated) | – | inconclusive: 2.44% [at 9.22 µM]
Brc1ccc(C2=CC(c3ccco3)n3nnnc3N2)cc1 (configuration not stated) | – | inconclusive: 18.2%
COc1cc(OC)cc(C(=O)OCC(=O)c2cc(C)n(CC3CCCO3)c2C)c1 (configuration not stated) | – | inconclusive: 34.8%
CCCOc1ccc(Cn2ccnc2)cc1[N+](=O)[O-] | inconclusive: 20.6 µM [activator, single point] | –
COc1ccc(Nc2cc(C)nc(-n3nc(C)cc3C)n2)cc1 | – | inconclusive: 29.2%
CCOC(=O)c1c(C)[nH]c(C(=O)OCc2c(C)noc2C)c1C | – | inconclusive: 36.7%
C=CCNS(=O)(=O)c1sccc1/C=N/O | – | inconclusive: -52.4%
OC(COc1ccc(F)cc1Cl)CN1CCC(Cc2ccccc2)CC1 (configuration not stated) | inconclusive: 23.1 µM [cytotoxic, single point] | –
CC(C)COc1ccc(-c2nnn(CC(=O)N3CCCC3)n2)cc1 | – | inconclusive: 52.8%
O=C(C1CC1)N1CCN=C1SCc1ccccc1Cl | – | inconclusive: -50%
Cc1scc(C(=O)N/N=C/c2ccc(OC(C)C)cc2)c1C | inconclusive: 4.61 µM [activator, partial curve, poor fit] | –
COc1ccc(-n2c(-c3ccc(Br)cc3)c[n+]3c2CCCCC3)cc1 | inconclusive: 29.1 µM [cytotoxic, single point] | –
COc1cccc(-n2nc3c(=O)n(Cc4ccccc4Cl)nc(C)c3c2C)c1 | – | inconclusive: -7.7%
CS(=O)(=O)c1cccc(-c2nnc(NC(=O)c3ccc4ncsc4c3)o2)c1 | – | inconclusive: 30.5%
O=C(Nc1ccc2c(c1)OCO2)C1CCN(S(=O)(=O)Cc2ccccc2)CC1 | – | inconclusive: 15.3%
Cc1cc(NCc2ccccn2)n2c(nc3ccccc32)c1C#N | – | inconclusive: -33.4%
COc1cc(N)c(Cl)cc1C(=O)OCC(=O)N1CCCCCC1 | inconclusive: 2.06 µM [activator, partial curve] | –
Cc1n[nH]c(=O)c2c1nnn2Cc1ccc(F)cc1 | – | inconclusive: 107%

Two entries drawn at random from the list so far, as already listed:
SMILES | Potency | lipid storage change, negative = inhibition
COC(=O)c1[nH]c2cccc(OC)c2c1NC(=O)CN1CCN(c2cccc(OC)c2)C(C)C1 (configuration not stated) | – | inconclusive: 47.1%
COc1cccc(-n2nc3c(=O)n(Cc4ccccc4Cl)nc(C)c3c2C)c1 | – | inconclusive: -7.7%
